Among the data in paper PMC5997793 are binding values, retold here.

Sequences of proteins named here, by UniProt entry; tags and fusion partners are left off. A change or cut given only in a name is not applied to a line headed by its entry.
UniProt Q15788: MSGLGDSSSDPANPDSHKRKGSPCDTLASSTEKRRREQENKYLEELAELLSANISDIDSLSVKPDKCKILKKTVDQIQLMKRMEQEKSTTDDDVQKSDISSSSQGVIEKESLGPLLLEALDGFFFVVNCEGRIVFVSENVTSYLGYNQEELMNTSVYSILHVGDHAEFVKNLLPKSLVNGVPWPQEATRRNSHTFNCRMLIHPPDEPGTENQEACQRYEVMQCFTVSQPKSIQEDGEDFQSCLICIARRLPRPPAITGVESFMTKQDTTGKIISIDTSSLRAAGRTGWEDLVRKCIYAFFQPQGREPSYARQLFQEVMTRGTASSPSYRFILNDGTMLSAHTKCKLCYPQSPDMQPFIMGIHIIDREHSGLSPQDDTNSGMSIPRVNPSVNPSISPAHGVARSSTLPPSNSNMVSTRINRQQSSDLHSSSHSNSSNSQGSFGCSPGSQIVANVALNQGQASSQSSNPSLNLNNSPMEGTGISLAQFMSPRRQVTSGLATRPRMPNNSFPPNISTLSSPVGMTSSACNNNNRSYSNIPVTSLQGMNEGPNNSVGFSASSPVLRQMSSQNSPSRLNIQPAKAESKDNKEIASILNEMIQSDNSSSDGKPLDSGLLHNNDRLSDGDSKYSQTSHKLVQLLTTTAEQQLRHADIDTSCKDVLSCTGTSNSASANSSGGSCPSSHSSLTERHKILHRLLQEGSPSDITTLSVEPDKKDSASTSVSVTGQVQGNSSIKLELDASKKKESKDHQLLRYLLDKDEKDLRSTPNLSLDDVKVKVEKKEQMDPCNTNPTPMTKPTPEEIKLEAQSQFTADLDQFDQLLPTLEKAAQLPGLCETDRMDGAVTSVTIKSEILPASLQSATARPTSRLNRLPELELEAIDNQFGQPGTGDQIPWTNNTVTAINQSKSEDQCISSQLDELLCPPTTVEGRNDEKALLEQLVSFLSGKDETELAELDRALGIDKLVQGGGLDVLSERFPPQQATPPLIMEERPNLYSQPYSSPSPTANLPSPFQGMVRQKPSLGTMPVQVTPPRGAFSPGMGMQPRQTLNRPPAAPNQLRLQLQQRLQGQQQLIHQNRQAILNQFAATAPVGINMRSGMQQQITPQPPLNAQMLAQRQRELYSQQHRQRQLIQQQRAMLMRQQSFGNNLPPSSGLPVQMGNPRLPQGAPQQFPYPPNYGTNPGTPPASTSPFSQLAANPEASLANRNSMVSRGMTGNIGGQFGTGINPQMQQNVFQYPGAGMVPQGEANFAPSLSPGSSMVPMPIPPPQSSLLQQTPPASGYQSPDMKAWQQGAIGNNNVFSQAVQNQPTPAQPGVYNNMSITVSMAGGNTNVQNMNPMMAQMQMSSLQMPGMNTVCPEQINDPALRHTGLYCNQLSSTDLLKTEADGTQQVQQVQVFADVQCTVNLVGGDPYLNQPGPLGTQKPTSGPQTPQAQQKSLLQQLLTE
UniProt Q04206: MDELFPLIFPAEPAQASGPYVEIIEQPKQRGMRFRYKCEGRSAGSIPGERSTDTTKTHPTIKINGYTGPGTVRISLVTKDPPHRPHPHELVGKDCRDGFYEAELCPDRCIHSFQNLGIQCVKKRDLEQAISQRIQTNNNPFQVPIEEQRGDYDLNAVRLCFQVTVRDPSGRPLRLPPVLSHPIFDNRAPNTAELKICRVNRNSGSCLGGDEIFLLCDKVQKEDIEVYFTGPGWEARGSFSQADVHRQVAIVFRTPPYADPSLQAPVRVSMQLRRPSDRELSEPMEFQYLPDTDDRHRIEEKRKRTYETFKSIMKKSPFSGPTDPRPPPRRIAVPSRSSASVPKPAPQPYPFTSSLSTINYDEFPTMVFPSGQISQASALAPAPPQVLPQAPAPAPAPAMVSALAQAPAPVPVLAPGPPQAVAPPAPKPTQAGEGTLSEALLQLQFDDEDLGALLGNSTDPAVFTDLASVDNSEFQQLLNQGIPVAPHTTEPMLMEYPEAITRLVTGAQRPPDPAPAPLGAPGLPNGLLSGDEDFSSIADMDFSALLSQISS

The assay has as its target Steroid receptor coactivator-1 (human (endogenous in TPC-1)) (UniProt Q15788). The assay can be described thus: co-IP; TPC-1 cells crosslinked with 1% formaldehyde at room temperature, sonicated; anti-SRC-1 mAb plus Protein G Sepharose added to the lysate, overnight at 4°C; washed three times; Western blot with anti-p65, anti-p50 and anti-SRC-1 mAbs. In general terms: In western blotting, separated proteins are transferred to a membrane and probed.

These are yes or no findings as the source states them, for the method shown. Binding seen in cells or lysates may run through a third protein. Some binding calls cover weakened binding; strength is not graded here.

For the substance “NF-kB (p65/p50) complex (from UniProt Q04206 1-551; P19838 1-433)”, the binding entry is listed as “binds”.
